Laboratory results published in the supplement of paper PMC10849652.
The other results are listed elsewhere or left out.

Protein sequences, listed by entry. Tags and fused reporters are not part of them. Lines headed by an entry give the natural chain unless they say otherwise; changes in a name come on top.
UniProt P49459, whole entry, looked up: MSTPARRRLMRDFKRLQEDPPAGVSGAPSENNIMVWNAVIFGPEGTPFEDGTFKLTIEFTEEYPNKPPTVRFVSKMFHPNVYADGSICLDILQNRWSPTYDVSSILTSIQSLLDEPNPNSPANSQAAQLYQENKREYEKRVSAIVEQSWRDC
UniProt O94888: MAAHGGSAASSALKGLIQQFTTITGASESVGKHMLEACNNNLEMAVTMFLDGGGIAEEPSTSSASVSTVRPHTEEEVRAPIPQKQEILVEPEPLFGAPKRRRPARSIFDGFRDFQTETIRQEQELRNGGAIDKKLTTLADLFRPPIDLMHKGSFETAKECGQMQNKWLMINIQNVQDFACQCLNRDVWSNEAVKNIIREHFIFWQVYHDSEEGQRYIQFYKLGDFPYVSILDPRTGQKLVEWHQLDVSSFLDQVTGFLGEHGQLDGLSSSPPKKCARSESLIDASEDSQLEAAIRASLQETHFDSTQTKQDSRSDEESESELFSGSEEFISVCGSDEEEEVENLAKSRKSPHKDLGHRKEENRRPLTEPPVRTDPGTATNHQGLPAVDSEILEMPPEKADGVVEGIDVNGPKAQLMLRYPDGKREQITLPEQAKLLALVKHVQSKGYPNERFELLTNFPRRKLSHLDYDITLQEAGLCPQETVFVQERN
UniProt Q12792, whole entry, looked up: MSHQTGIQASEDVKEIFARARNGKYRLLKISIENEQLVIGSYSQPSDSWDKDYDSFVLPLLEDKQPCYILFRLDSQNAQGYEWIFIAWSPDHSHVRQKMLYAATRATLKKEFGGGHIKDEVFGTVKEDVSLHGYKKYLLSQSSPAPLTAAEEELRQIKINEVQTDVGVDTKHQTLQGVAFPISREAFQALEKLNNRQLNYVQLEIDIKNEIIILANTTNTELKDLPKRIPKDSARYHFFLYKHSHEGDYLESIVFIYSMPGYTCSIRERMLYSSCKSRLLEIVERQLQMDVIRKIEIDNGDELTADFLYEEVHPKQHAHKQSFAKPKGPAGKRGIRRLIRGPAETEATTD
UniProt Q05086: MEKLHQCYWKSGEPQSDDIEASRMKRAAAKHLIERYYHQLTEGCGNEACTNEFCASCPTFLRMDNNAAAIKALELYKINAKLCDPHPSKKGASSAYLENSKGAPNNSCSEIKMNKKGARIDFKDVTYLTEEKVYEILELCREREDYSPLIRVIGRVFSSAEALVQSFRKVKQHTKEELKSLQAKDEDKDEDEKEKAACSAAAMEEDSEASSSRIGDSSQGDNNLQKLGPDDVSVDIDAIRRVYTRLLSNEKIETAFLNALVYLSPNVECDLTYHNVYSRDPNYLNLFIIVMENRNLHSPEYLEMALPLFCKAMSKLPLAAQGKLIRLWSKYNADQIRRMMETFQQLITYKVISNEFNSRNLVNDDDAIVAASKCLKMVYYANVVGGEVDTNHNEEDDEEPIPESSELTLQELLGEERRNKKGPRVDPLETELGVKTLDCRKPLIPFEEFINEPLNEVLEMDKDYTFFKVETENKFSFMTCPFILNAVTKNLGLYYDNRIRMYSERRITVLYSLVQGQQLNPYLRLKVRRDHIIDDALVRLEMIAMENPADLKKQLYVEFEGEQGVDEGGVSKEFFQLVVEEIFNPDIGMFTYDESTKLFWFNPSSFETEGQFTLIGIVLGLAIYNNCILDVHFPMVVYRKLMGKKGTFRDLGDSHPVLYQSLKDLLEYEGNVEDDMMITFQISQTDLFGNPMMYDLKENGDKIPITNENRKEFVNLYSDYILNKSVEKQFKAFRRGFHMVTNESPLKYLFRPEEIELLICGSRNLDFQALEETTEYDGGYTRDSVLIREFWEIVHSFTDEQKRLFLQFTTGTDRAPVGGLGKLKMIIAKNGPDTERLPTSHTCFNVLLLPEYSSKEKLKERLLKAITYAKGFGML
UniProt P83876: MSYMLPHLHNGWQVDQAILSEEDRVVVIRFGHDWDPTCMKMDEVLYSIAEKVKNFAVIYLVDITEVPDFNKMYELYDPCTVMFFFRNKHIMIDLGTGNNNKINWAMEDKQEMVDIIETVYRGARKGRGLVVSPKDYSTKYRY
UniProt P62256: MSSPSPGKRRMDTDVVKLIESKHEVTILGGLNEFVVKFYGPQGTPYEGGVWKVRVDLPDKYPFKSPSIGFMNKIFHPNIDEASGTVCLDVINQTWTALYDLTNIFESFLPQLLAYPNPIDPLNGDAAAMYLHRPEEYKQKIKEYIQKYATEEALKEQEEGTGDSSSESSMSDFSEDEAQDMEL
UniProt Q8TBC4: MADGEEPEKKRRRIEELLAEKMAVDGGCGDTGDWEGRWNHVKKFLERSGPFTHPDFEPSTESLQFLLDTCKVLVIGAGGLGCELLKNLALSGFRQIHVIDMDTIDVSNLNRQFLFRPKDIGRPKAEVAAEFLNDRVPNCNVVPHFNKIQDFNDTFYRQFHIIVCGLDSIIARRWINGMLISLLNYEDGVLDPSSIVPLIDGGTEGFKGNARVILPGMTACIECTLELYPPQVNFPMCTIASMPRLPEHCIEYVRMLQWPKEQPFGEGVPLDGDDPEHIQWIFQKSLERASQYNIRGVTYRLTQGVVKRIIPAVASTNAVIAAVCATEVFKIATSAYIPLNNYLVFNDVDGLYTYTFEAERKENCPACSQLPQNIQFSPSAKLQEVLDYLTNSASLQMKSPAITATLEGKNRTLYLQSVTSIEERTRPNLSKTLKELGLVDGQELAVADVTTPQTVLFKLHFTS
UniProt Q9UGJ1, whole entry, looked up: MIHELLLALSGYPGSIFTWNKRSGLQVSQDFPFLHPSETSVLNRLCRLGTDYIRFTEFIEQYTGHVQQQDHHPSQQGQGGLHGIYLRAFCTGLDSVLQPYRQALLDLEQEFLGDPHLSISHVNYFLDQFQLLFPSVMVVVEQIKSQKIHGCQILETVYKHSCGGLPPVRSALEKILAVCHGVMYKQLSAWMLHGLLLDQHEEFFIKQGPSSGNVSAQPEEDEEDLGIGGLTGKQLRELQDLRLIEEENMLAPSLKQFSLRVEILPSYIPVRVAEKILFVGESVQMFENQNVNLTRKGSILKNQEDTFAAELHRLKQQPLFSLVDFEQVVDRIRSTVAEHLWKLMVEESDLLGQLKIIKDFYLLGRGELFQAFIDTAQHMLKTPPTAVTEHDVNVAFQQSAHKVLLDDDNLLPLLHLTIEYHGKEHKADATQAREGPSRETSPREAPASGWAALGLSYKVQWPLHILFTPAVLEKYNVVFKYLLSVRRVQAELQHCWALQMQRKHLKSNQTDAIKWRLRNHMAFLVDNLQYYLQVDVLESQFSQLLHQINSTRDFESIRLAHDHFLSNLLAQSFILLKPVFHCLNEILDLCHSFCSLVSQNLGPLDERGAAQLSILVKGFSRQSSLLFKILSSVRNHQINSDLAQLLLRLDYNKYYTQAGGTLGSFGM
UniProt Q16763: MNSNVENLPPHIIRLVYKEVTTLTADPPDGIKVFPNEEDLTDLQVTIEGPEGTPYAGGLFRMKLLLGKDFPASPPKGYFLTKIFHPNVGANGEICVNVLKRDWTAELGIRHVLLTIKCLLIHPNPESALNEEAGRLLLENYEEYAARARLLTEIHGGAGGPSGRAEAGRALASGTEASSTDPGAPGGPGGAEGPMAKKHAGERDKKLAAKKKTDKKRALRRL
UniProt O95881: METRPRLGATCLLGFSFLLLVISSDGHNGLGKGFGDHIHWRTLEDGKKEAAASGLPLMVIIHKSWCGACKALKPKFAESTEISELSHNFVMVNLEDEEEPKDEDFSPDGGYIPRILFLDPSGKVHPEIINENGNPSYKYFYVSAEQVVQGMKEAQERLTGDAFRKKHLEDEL
UniProt Q9NV66: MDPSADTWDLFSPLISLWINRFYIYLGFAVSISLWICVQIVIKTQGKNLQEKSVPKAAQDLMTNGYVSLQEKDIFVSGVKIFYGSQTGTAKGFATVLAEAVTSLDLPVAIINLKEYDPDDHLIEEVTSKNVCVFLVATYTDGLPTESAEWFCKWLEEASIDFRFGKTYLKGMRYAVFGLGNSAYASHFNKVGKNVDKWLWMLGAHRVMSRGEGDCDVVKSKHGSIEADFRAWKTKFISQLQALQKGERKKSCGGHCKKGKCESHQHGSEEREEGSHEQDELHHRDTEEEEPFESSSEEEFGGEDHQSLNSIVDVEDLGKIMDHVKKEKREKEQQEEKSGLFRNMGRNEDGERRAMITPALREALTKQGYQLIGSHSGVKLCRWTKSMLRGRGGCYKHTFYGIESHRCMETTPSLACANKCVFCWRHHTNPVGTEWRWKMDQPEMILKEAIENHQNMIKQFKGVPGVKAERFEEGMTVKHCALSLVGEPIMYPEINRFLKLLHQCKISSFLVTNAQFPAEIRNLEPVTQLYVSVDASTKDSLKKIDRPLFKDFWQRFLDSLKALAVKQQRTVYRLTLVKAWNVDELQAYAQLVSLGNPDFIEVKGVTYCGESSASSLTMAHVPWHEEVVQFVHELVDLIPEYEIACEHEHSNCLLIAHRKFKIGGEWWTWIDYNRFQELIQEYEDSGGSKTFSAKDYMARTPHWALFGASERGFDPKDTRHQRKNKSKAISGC
UniProt Q9BZX2: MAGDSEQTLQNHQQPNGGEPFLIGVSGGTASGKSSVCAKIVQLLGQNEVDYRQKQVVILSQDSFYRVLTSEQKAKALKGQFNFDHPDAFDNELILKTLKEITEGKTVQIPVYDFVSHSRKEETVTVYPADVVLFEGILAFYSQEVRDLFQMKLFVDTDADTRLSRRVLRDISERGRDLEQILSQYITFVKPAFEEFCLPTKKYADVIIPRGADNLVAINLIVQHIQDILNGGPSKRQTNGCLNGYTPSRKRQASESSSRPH
UniProt P23258, whole entry, looked up: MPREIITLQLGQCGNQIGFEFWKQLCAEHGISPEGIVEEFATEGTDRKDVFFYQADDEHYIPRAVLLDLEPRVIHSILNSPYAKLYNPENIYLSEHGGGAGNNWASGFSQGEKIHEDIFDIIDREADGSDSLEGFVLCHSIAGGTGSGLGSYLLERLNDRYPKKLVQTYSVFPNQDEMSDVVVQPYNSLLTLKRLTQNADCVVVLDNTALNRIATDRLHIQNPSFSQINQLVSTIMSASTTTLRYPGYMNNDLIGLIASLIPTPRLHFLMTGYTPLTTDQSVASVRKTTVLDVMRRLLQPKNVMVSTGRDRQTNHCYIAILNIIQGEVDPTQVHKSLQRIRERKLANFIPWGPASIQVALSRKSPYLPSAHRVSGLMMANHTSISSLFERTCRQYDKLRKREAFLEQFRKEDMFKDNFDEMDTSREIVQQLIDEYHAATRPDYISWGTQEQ
UniProt P0CG48, whole entry, looked up: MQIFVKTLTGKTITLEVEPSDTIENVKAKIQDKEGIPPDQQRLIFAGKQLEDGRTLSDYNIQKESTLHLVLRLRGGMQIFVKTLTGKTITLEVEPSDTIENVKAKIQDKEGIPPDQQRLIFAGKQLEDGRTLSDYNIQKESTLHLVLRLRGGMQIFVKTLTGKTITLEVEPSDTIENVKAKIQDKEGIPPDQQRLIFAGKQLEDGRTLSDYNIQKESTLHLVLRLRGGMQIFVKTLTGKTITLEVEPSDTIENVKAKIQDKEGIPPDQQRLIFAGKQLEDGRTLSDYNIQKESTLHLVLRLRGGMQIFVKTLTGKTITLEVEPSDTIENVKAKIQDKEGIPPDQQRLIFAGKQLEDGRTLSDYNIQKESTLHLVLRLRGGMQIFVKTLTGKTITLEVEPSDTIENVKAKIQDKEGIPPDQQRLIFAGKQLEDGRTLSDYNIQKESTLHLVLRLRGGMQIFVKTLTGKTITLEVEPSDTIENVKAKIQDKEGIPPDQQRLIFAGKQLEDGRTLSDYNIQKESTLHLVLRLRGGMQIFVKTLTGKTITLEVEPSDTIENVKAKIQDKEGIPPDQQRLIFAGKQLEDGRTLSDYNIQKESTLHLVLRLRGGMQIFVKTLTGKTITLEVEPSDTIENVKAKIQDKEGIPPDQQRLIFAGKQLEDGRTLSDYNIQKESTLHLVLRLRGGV
UniProt Q99757: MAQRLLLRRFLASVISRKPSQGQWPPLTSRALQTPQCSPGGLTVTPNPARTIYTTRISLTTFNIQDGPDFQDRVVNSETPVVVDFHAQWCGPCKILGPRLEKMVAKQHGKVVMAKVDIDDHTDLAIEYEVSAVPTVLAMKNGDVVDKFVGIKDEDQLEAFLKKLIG
UniProt Q9UJT1: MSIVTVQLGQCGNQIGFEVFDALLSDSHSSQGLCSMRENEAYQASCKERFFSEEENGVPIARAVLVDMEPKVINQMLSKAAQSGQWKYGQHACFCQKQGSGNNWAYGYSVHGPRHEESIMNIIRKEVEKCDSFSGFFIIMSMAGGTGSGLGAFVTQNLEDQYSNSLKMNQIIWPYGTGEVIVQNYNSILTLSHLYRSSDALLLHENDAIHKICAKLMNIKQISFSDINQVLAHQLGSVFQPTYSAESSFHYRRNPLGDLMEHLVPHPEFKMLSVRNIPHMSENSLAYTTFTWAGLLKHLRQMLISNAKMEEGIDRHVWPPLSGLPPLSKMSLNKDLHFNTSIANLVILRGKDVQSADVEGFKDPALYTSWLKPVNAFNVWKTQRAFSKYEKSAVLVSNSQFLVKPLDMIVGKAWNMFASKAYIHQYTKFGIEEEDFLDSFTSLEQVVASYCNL

Legend:
Assay in all cases: log2 fold change, soluble protein after heating vs DMSO (PISA); higher = thermal stabilisation; K562 lysate, 10 uM; active = over 0.2 and 3.5 SD of the protein, either way, in both replicates (recomputed)
[1] = compound: Cc1cn(-c2cc(NC(=O)c3ccc(C)c(Nc4nccc(-c5cccnc5)n4)c3)cc(C(F)(F)F)c2)cn1 [nilotinib]
Method in brief: (§1)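 Values give the log-two fold change in thermal stability against solvent controls, from duplicates. Crude K562 extract at 1 mg/mL protein, made by dounce homogenisation in PBS pH 7.4 with 1 mM MgCl2, was treated with 10 μM compound for 30 min. After 3 min heating across 48°C-58°C, aliquots were pooled, adjusted to 0.5% NP-40 at 4°C and centrifuged at 21,000xg for 90 min. The supernatant was measured by TMTpro 16plex LC-MS/MS with channel sums equalised.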

[2] = compound: Cc1nc(Nc2n[nH]c3c2CN(C(=O)N[C@H](CN(C)C)c2ccccc2)C3(C)C)c2sccc2n1
Method in brief: as §1

[3] = compound: Cc1nc(Nc2ncc(C(=O)Nc3c(C)cccc3Cl)s2)cc(N2CCN(CCO)CC2)n1 [dasatinib]
Method in brief: as §1

[4] = compound: Cc1ncc(-c2ccnc(Nc3ccc(S(C)(=O)=O)cc3)n2)n1C(C)C
Method in brief: as §1

[5] = compound: Cn1cc(-c2ccc3c(c2)CCN3C(=O)Cc2cccc(C(F)(F)F)c2)c2c(N)ncnc21
Method in brief: as §1

[6] = compound: Cn1cc(CNCC2CCN(c3ncc(C(=O)NO)cn3)CC2)c2ccccc21 [quisinostat]
Method in brief: as §1

[7] = compound: Cn1cncc1[C@@](N)(c1ccc(Cl)cc1)c1ccc2c(c1)c(-c1cccc(Cl)c1)cc(=O)n2C [tipifarnib]
Method in brief: as §1

[8] = compound: NC(=O)Nc1cc(-c2cccc(F)c2)sc1C(=O)N[C@H]1CCCNC1
Method in brief: as §1

[9] = compound: NC(=O)c1cnc(N[C@@H]2CCCC[C@@H]2N)nc1Nc1cccc(-n2nccn2)c1
Method in brief: as §1

[10] = compound: NC1(c2ccc(-c3nc4ccn5c(=O)[nH]nc5c4cc3-c3ccccc3)cc2)CCC1
Method in brief: as §1

Target	log2 fold change [1]	log2 fold change [2]	log2 fold change [3]	log2 fold change [4]	log2 fold change [5]	log2 fold change [6]	log2 fold change [7]	log2 fold change [8]	log2 fold change [9]	log2 fold change [10]
UBE2A (UniProt P49459)	inactive: 0.022	inactive: -0.016	inactive: 0.01	inactive: 0.07	inactive: -0.042	inactive: -0.06	inactive: 0.046	inactive: -0.008	inactive: 0.044	inactive: -0.023
TUBA1C (UniProt Q9BQE3)	inactive: -0.001	inactive: 0.021	inactive: -0.017	inactive: 0.006	inactive: 0.018	inactive: -0.038	inactive: -0.007	inactive: 0.014	inactive: -0.006	inactive: -0.052
UBXN7 (UniProt O94888)	inactive: -0.008	inactive: -0.012	inactive: 0.018	inactive: -0.004	inactive: -0.048	inactive: -0.001	inactive: 0.024	inactive: -0.02	inactive: 0.025	inactive: -0.019
TUBGCP5 (UniProt Q96RT8)	inactive: 0.024	inactive: 0.04	inactive: 0.119	inactive: 0.048	inactive: -0.094	inactive: 0.203	inactive: 0.012	inactive: 0.077	active: -0.68	–
TWF1 (UniProt Q12792)	inactive: -0.006	inactive: -0.018	inactive: 0.003	inactive: -0.046	inactive: 0.007	inactive: 0.014	inactive: 0.009	inactive: -0.019	inactive: 0.008	inactive: 0.004
UAP1L1 (UniProt Q3KQV9)	inactive: -0.01	inactive: -0.011	inactive: -0.058	inactive: 0.007	inactive: 0.023	inactive: 0.06	inactive: 0.058	inactive: 0.039	inactive: -0.091	inactive: 0.115
UBE2J1 (UniProt Q9Y385)	inactive: -0.008	inactive: 0.012	inactive: -0.163	inactive: -0.005	inactive: -0.042	inactive: -0.004	inactive: -0.005	inactive: -0.002	inactive: 0.016	inactive: 0.053
UBE3A (UniProt Q05086)	inactive: 0.006	inactive: 0.009	inactive: -0.026	inactive: 0.011	inactive: 0.011	inactive: -0.023	inactive: -0.001	inactive: 0.006	inactive: -0.007	inactive: -0.017
TXNL4A (UniProt P83876)	inactive: -0.003	inactive: -0.033	inactive: -0.03	inactive: 0.024	inactive: 0.035	inactive: -0.068	inactive: -0.029	inactive: 0.03	inactive: -0.001	inactive: -0.01
UBE2H (UniProt P62256)	inactive: -0.021	inactive: -0.041	inactive: 0.046	inactive: 0.02	inactive: 0.021	inactive: -0.015	inactive: -0.049	inactive: 0.014	inactive: 0.005	inactive: -0.041
UBE2R2 (UniProt Q712K3)	inactive: -0.011	inactive: 0.01	inactive: 0.046	inactive: 0.003	inactive: 0.006	inactive: 0.045	inactive: 0	inactive: 0.016	inactive: 0.035	inactive: 0.043
UBA3 (UniProt Q8TBC4)	inactive: 0.057	inactive: -0.03	inactive: -0.003	inactive: 0.015	inactive: 0.019	inactive: -0.017	inactive: 0.047	inactive: -0.005	inactive: -0.008	inactive: 0.021
UBE2V2 (UniProt Q15819)	inactive: 0.001	inactive: 0.008	inactive: 0.024	inactive: -0.036	inactive: 0.115	inactive: 0.023	inactive: 0.039	inactive: 0.004	inactive: -0.008	inactive: -0.014
TUBGCP4 (UniProt Q9UGJ1)	inactive: -0.028	inactive: 0.008	inactive: -0.046	inactive: 0.001	inactive: 0.018	inactive: -0.027	inactive: 0.008	inactive: 0.069	inactive: 0.034	inactive: 0.01
UBXN1 (UniProt Q04323)	inactive: 0.005	inactive: -0.017	inactive: -0.014	inactive: 0.009	inactive: 0.018	inactive: -0.1	inactive: 0.015	inactive: -0.017	inactive: 0.003	inactive: 0.025
UBE2S (UniProt Q16763)	inactive: 0.028	inactive: 0.015	inactive: 0.015	inactive: -0.03	inactive: -0.042	inactive: -0.022	inactive: -0.01	inactive: 0.008	inactive: 0.049	inactive: -0.01
TXNDC12 (UniProt O95881)	inactive: 0.005	inactive: -0.002	inactive: -0.005	inactive: -0.047	inactive: -0.004	inactive: 0.075	inactive: 0.059	inactive: -0.04	inactive: -0.01	inactive: 0.032
TYW3 (UniProt Q6IPR3)	inactive: -0.033	inactive: 0.017	inactive: -0.006	inactive: 0.035	inactive: 0.027	inactive: -0.126	inactive: -0.018	inactive: -0.014	inactive: 0.046	inactive: 0.017
TYW1 (UniProt Q9NV66)	inactive: -0.129	inactive: -0.036	inactive: -0.073	inactive: -0.1	inactive: -0.019	inactive: 0.105	inactive: -0.088	inactive: 0.002	inactive: 0.022	inactive: 0.062
TXNRD2 (UniProt Q9NNW7)	inactive: 0.063	inactive: 0.008	inactive: 0.039	inactive: 0.071	inactive: 0.015	inactive: -0.017	inactive: -0.005	inactive: -0.023	inactive: -0.006	inactive: -0.05
UCK2 (UniProt Q9BZX2)	inactive: 0.001	inactive: -0.019	inactive: -0.028	inactive: 0.019	inactive: 0.031	inactive: -0.058	inactive: -0.011	inactive: 0.071	inactive: 0.018	inactive: -0.051
UBR2 isoform 4 (UniProt Q8IWV8)	inactive: 0	inactive: 0.01	inactive: -0.036	inactive: -0.027	inactive: 0.01	inactive: -0.091	inactive: -0.002	inactive: 0.035	inactive: 0.002	inactive: -0.013
U2SURP (UniProt O15042)	inactive: 0.001	inactive: -0.039	inactive: -0.029	inactive: 0.034	inactive: 0.046	inactive: 0.022	inactive: 0.015	inactive: 0.021	inactive: 0.005	inactive: 0.019
TUBG1 (UniProt P23258)	inactive: 0.04	inactive: -0.005	inactive: -0.098	inactive: 0.013	inactive: 0.046	inactive: -0.026	inactive: -0.051	inactive: 0.068	inactive: 0.03	inactive: 0.024
UBC (UniProt P0CG48)	inactive: 0.024	inactive: -0.005	inactive: -0.014	inactive: 0.088	inactive: -0.016	inactive: -0.032	inactive: 0.013	inactive: 0.006	inactive: -0.025	inactive: 0.016
UBIAD1 (UniProt Q9Y5Z9)	inactive: 0.14	inactive: -0.014	inactive: 0.117	inactive: 0.125	inactive: -0.014	inactive: 0.096	inactive: 0.04	inactive: -0.019	inactive: -0.034	inactive: -0.027
TUBE1 (UniProt Q9UJT0)	inactive: 0.036	inactive: -0.051	inactive: 0.017	inactive: -0.046	inactive: -0.028	inactive: -0.037	inactive: 0.029	inactive: 0.064	inactive: 0.007	inactive: 0.025
TXN2 (UniProt Q99757)	inactive: -0.066	inactive: 0.033	inactive: 0.006	inactive: -0.022	inactive: -0.039	inactive: 0.057	inactive: -0.068	inactive: 0.005	inactive: 0	inactive: 0
UBL7 (UniProt Q96S82)	inactive: -0.023	inactive: 0.039	inactive: 0.003	inactive: 0.02	inactive: 0.045	inactive: 0.011	inactive: -0.055	inactive: 0.01	inactive: 0.012	inactive: -0.059
TUBD1 (UniProt Q9UJT1)	inactive: -0.041	inactive: 0.143	inactive: 0.064	inactive: -0.1	inactive: 0.008	inactive: -0.113	inactive: 0.026	inactive: 0.028	inactive: 0.063	inactive: 0.104

Another view of part of the listing above.
Target | log2 fold change [1] | log2 fold change [2] | log2 fold change [3] | log2 fold change [4] | log2 fold change [5] | log2 fold change [6] | log2 fold change [7] | log2 fold change [8] | log2 fold change [9] | log2 fold change [10]
UAP1L1 (UniProt Q3KQV9) | inactive: -0.01 | inactive: -0.011 | inactive: -0.058 | inactive: 0.007 | inactive: 0.023 | inactive: 0.06 | inactive: 0.058 | inactive: 0.039 | inactive: -0.091 | inactive: 0.115
UBE2J1 (UniProt Q9Y385) | inactive: -0.008 | inactive: 0.012 | inactive: -0.163 | inactive: -0.005 | inactive: -0.042 | inactive: -0.004 | inactive: -0.005 | inactive: -0.002 | inactive: 0.016 | inactive: 0.053
UBE3A (UniProt Q05086) | inactive: 0.006 | inactive: 0.009 | inactive: -0.026 | inactive: 0.011 | inactive: 0.011 | inactive: -0.023 | inactive: -0.001 | inactive: 0.006 | inactive: -0.007 | inactive: -0.017
TXNL4A (UniProt P83876) | inactive: -0.003 | inactive: -0.033 | inactive: -0.03 | inactive: 0.024 | inactive: 0.035 | inactive: -0.068 | inactive: -0.029 | inactive: 0.03 | inactive: -0.001 | inactive: -0.01
UBE2H (UniProt P62256) | inactive: -0.021 | inactive: -0.041 | inactive: 0.046 | inactive: 0.02 | inactive: 0.021 | inactive: -0.015 | inactive: -0.049 | inactive: 0.014 | inactive: 0.005 | inactive: -0.041
UBE2R2 (UniProt Q712K3) | inactive: -0.011 | inactive: 0.01 | inactive: 0.046 | inactive: 0.003 | inactive: 0.006 | inactive: 0.045 | inactive: 0 | inactive: 0.016 | inactive: 0.035 | inactive: 0.043
UBA3 (UniProt Q8TBC4) | inactive: 0.057 | inactive: -0.03 | inactive: -0.003 | inactive: 0.015 | inactive: 0.019 | inactive: -0.017 | inactive: 0.047 | inactive: -0.005 | inactive: -0.008 | inactive: 0.021
UBE2V2 (UniProt Q15819) | inactive: 0.001 | inactive: 0.008 | inactive: 0.024 | inactive: -0.036 | inactive: 0.115 | inactive: 0.023 | inactive: 0.039 | inactive: 0.004 | inactive: -0.008 | inactive: -0.014
